Experimental data from publication PMC7665892.
Results are given in words; binding and its absence hold for the method and conditions named. For part of these data: Binding seen in cells or lysates may run through a third protein. Some entries that bind do so weakly or less than the wild type. For part of these data: Tags and fused reporters may be left off the sequences shown. Blank lines part the entries; values can stand above or below the molecule they belong to.

Protein sequences, listed by entry. Tags and fused reporters are not part of them. Lines headed by an entry give the natural chain unless they say otherwise; changes in a name come on top. Chains listed by the source or under a name are the forms on record and can include a tag or linker.
UniProt Q01628: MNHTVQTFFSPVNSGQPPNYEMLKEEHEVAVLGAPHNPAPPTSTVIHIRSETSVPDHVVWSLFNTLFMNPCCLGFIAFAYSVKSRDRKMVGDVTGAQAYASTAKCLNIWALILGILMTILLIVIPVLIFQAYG
IFITM3 G95L tagged with YFP or mCherry internally after residue 40 (Q01628, form named): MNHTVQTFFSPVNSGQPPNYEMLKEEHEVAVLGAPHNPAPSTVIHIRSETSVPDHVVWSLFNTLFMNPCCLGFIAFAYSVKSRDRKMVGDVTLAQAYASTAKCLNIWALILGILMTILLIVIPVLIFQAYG
IFITM3 WT tagged with YFP or mCherry internally after residue 40 (Q01628, form named): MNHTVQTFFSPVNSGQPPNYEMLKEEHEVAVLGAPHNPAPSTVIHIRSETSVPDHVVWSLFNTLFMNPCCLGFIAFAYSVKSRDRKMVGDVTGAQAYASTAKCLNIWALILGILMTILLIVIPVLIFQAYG

What was measured:
[1] = molecular target: IFITM3 G95L tagged with YFP or mCherry internally after residue 40 (human) (UniProt Q01628); experiment: FRET or BRET; FRET index and FLIM of the donor YFP in living HEK293T cells transiently co-transfected with a YFP-tagged and an mCherry-tagged copy; free mCherry with the YFP copy as background; Fluorobrite DMEM
[2] = molecular target: IFITM3 S61A/N64A/T65A fused with YFP or mCherry at the amino terminus (human) (UniProt Q01628); experiment: as above
[3] = molecular target: IFITM3 F75A/F78A fused with YFP or mCherry at the amino terminus (human) (UniProt Q01628); experiment: as above
[4] = molecular target: IFITM3 WT fused with amino-terminal FLAG or myc (human) (UniProt Q01628); experiment: native gel or EMSA; blue native PAGE (4-16% Bis-Tris) of lysates of transfected HEK293T made with 1% digitonin; immunoblot with anti-FLAG
[5] = molecular target: IFITM3 WT fused with amino-terminal FLAG or myc (human) (UniProt Q01628); experiment: co-IP; HEK293T co-transfected with FLAG- and myc-tagged copies; lysis in 0.5% IPEGAL, 50 mM Tris pH 7.4, 150 mM NaCl, 1 mM EDTA; anti-FLAG M2 magnetic beads, 3 hr, 4°C; quantitative immunoblot with anti-myc
[6] = molecular target: IFITM3 WT tagged with YFP or mCherry internally after residue 40 (human) (UniProt Q01628); experiment: FRET or BRET; FRET index and FLIM of the donor YFP in living HEK293T cells transiently co-transfected with a YFP-tagged and an mCherry-tagged copy; free mCherry with the YFP copy as background; Fluorobrite DMEM
[7] = molecular target: IFITM3 WT fused with YFP or mCherry at the amino terminus (human) (UniProt Q01628); experiment: as above
[8] = molecular target: T1, PRRT2 WT tagged with carboxy-terminal YFP or mCherry (human), Q7Z6L0; experiment: as above; details: remark: other sources report otherwise
T1 chain: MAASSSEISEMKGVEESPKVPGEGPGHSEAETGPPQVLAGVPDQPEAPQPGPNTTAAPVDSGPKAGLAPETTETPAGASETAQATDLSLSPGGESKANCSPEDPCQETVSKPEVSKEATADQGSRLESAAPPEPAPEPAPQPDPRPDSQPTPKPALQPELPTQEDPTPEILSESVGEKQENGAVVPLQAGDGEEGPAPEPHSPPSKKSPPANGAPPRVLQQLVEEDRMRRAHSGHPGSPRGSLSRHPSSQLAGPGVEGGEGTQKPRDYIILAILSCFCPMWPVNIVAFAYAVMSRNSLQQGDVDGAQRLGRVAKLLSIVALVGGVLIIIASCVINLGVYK

Molecule: IFITM3 S61A/N64A/T65A fused with YFP or mCherry at the amino terminus (from UniProt Q01628 1-133)
binding [2]: binds

Molecule: IFITM3 F75A/F78A fused with YFP or mCherry at the amino terminus (from UniProt Q01628 1-133)
binding [3]: binds

Molecule: IFITM3 WT tagged with YFP or mCherry internally after residue 40 (from UniProt Q01628 1-133)
binding [6]: binds

Molecule: IFITM3 G95L fused with amino-terminal FLAG or myc (from UniProt Q01628 1-133)
binding [5]: binds

Results, then the molecule that gave them:

binding [1]: binds
Molecule: IFITM3 G95L tagged with YFP or mCherry internally after residue 40 (from UniProt Q01628 1-133)

binding [4]: binds
binding [5]: binds
Molecule: IFITM3 WT fused with amino-terminal FLAG or myc (from UniProt Q01628 1-133)

binding [7]: binds
Molecule: IFITM3 G95L fused with YFP or mCherry at the amino terminus (from UniProt Q01628 1-133)

binding [8]: binds
B1: PRRT2 WT tagged with carboxy-terminal YFP or mCherry, Q7Z6L0 1-340 (protein)
chain: MAASSSEISEMKGVEESPKVPGEGPGHSEAETGPPQVLAGVPDQPEAPQPGPNTTAAPVDSGPKAGLAPETTETPAGASETAQATDLSLSPGGESKANCSPEDPCQETVSKPEVSKEATADQGSRLESAAPPEPAPEPAPQPDPRPDSQPTPKPALQPELPTQEDPTPEILSESVGEKQENGAVVPLQAGDGEEGPAPEPHSPPSKKSPPANGAPPRVLQQLVEEDRMRRAHSGHPGSPRGSLSRHPSSQLAGPGVEGGEGTQKPRDYIILAILSCFCPMWPVNIVAFAYAVMSRNSLQQGDVDGAQRLGRVAKLLSIVALVGGVLIIIASCVINLGVYK
